Patent US11685741B2, “Fluorescent probes” (University of Massachusetts, priority 2017, dated 2023)

Test: Binding studies of sensor with Fe2+ (stoichiometry, affinity, reversibility)
Details: H2O/THF pH 7.3
Protocol: The binding stoichiometry between the sensor Rh6GD and Fe^2+ was investigated by absorption and fluorescence titrations first. The sensor, Rh6GD has an absorption band at ˜420 nm (FIG. 26) which is due to the transition from S0 to S1 states (A. Chakraborty, et al., N. Chem. Phys., 2006, 324, 733) of the dimethylaminocinnamaldehyde moiety. […] Similar titrations were performed and were monitored by fluorescence spectroscopy.
The binding constant was estimated by using the absorption titration results. The equations below were used to calculate the binding constant for 2:1 complexes following a reported procedure (M. Guo, et al., Dalton Trans., 2007, 102, 4951). S+2L ? SL2 (1) The complex apparent binding constant is given by
[formula] Fc is the fraction of L that formed a complex; the subscripts e and o stand for equilibrium and initial concentrations, respectively. Au, Am, and Ac are the absorbances of solutions of L (before any Fe^2+ was added), during the titration, and at saturation, respectively. The concentration of free Fe^2+ at equilibrium, [S]e, is found with the following identity: [S]e=[S]o−[SL2]e[=S]o−Fc[L]o (4) Finally, the integrated apparent binding constant equation is shown in equation (5).
Reversibility experiments were carried out by adding the metal chelator EDTA to the Rh6GD-Fe^2+ complex in H2O/THF (pH 7.3, v/v 4:1). […]
Besides metal-selectivity, the binding constant, which describes the strength of binding between the sensor and metal cations, is also an important factor to be considered in bio-imaging. […] Job's method was applied to study the binding stoichiometry between Rh101D and Fe^2+ and monitored by the absorbance at 585 nm.
The binding constants were estimated by using the fluorescence titration results (FIG. 38). […]
The binding stoichiometry and the affinity between the sensor NIRh-Fret and Fe^2+ were investigated by UV-vis absorption titration. […] The binding constant for the formation of this complex was determined to be 2.9×10^6 M^−1 using a reported procedure (C. A. Perez, et al., J. Inorg. Biochem., 2009, 103, 326). […]

SMILES | reversibility of binding on addition of EDTA
CCN(CC)c1ccc2c(c1)OC1=C(CCC/C1=C\C=C1\N(C)c3ccccc3C1(C)C)C21c2ccccc2C(=O)N1/N=C\C=C\c1ccc(N(C)C)cc1 (centres unmarked) [NIRh-Fret, (E)-6′-(diethylamino)-2-(((1Z,2E)-3-(4-(dimethylamino)phenyl)allylidene)amino)-4′-(2-((E)-1,3,3-trimethylindolin-2-ylidene)ethylidene)-1′,2′,3′,4′-tetrahydrospiro[isoindoline-1,9′-xanthen]-3-one] | reversible binding
CN(C)c1ccc(/C=C/C=N/N2C(=O)c3ccccc3C23c2cc4c5c(c2Oc2c3cc3c6c2CCCN6CCC3)CCCN5CCC4)cc1 [Rh101D] | reversible binding
